In publication PMC5902029:
These are yes or no findings as the source states them, for the method shown. Binding seen in cells or lysates may run through a third protein. Some results given as binding are weak or reduced against the parent protein; the word gives no strength.

Protein sequences, listed by entry. Tags and fused reporters are not part of them. Residues count along the entry.
UniProt Q5NCH9, residues 24-871: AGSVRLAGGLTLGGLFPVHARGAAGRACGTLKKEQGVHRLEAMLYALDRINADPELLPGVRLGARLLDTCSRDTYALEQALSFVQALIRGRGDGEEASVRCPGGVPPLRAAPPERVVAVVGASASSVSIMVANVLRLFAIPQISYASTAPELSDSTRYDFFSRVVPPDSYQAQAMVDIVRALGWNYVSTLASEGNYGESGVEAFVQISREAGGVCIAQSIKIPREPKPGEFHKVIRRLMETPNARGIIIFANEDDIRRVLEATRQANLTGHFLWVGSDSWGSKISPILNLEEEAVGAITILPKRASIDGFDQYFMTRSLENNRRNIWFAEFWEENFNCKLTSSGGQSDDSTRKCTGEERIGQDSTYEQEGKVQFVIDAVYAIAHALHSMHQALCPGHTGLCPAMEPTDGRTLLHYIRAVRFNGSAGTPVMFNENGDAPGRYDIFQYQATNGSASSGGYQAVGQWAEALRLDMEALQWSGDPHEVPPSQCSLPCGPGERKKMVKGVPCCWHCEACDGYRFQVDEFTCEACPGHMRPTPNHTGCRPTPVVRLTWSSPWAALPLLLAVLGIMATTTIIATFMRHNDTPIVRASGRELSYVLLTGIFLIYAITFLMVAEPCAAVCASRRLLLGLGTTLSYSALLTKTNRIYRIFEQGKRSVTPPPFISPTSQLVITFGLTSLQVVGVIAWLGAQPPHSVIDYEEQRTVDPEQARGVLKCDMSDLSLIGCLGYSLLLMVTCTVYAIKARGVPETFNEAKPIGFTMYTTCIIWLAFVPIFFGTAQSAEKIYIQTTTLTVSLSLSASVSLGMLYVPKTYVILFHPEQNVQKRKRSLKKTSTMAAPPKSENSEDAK

Experiments:
[1] = target: T1, LRIT1 expressed in transfected HEK293T cells (UniProt Q8K099); assay: co-IP; HEK293T cells co-transfected with combinations of mGluR6 and LRIT1; forward and reverse immunoprecipitation with anti-LRIT1 and anti-mGluR6 antibodies; detection by western blotting
T1 sequence: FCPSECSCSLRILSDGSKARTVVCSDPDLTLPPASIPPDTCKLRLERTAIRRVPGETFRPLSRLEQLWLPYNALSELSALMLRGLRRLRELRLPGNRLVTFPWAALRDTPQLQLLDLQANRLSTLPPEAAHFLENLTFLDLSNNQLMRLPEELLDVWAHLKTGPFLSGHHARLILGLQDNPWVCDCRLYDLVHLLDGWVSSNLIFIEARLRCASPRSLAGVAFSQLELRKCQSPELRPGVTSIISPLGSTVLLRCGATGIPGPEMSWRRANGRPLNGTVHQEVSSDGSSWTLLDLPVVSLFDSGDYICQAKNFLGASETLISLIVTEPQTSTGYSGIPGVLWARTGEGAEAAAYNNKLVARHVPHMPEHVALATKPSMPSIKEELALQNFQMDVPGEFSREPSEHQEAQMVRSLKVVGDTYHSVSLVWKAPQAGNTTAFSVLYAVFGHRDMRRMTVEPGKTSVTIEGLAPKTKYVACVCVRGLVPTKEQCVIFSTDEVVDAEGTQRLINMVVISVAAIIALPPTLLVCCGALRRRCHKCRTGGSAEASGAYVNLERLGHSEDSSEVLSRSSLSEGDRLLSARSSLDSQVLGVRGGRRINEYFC

[2] = target: mGluR6 (metabotropic glutamate receptor 6), endogenous in mouse retina (mouse (endogenous in retina)) (UniProt Q5NCH9); assay: co-IP; anti-mGluR6 immunoprecipitation from wild-type mouse retina lysates; LRIT1 and mGluR6 detected in the eluates by western blotting; nob3 retinas lacking mGluR6 as specificity control
[3] = target: mGluR6 expressed in transfected HEK293T cells (UniProt Q5NCH9); assay: co-IP; HEK293T cells co-transfected with combinations of mGluR6 and LRIT1; forward and reverse immunoprecipitation with anti-LRIT1 and anti-mGluR6 antibodies; detection by western blotting

Molecule: mGluR6 expressed in transfected HEK293T cells (from UniProt Q5NCH9 24-871) (receptor)
- binding [1]: binds

B1: LRIT1, endogenous in mouse retina (protein, UniProt Q8K099 22-624)
chain: FCPSECSCSLRILSDGSKARTVVCSDPDLTLPPASIPPDTCKLRLERTAIRRVPGETFRPLSRLEQLWLPYNALSELSALMLRGLRRLRELRLPGNRLVTFPWAALRDTPQLQLLDLQANRLSTLPPEAAHFLENLTFLDLSNNQLMRLPEELLDVWAHLKTGPFLSGHHARLILGLQDNPWVCDCRLYDLVHLLDGWVSSNLIFIEARLRCASPRSLAGVAFSQLELRKCQSPELRPGVTSIISPLGSTVLLRCGATGIPGPEMSWRRANGRPLNGTVHQEVSSDGSSWTLLDLPVVSLFDSGDYICQAKNFLGASETLISLIVTEPQTSTGYSGIPGVLWARTGEGAEAAAYNNKLVARHVPHMPEHVALATKPSMPSIKEELALQNFQMDVPGEFSREPSEHQEAQMVRSLKVVGDTYHSVSLVWKAPQAGNTTAFSVLYAVFGHRDMRRMTVEPGKTSVTIEGLAPKTKYVACVCVRGLVPTKEQCVIFSTDEVVDAEGTQRLINMVVISVAAIIALPPTLLVCCGALRRRCHKCRTGGSAEASGAYVNLERLGHSEDSSEVLSRSSLSEGDRLLSARSSLDSQVLGVRGGRRINEYFC
- binding [2]: binds

B2: LRIT1 expressed in transfected HEK293T cells (protein, UniProt Q8K099 22-624)
chain: FCPSECSCSLRILSDGSKARTVVCSDPDLTLPPASIPPDTCKLRLERTAIRRVPGETFRPLSRLEQLWLPYNALSELSALMLRGLRRLRELRLPGNRLVTFPWAALRDTPQLQLLDLQANRLSTLPPEAAHFLENLTFLDLSNNQLMRLPEELLDVWAHLKTGPFLSGHHARLILGLQDNPWVCDCRLYDLVHLLDGWVSSNLIFIEARLRCASPRSLAGVAFSQLELRKCQSPELRPGVTSIISPLGSTVLLRCGATGIPGPEMSWRRANGRPLNGTVHQEVSSDGSSWTLLDLPVVSLFDSGDYICQAKNFLGASETLISLIVTEPQTSTGYSGIPGVLWARTGEGAEAAAYNNKLVARHVPHMPEHVALATKPSMPSIKEELALQNFQMDVPGEFSREPSEHQEAQMVRSLKVVGDTYHSVSLVWKAPQAGNTTAFSVLYAVFGHRDMRRMTVEPGKTSVTIEGLAPKTKYVACVCVRGLVPTKEQCVIFSTDEVVDAEGTQRLINMVVISVAAIIALPPTLLVCCGALRRRCHKCRTGGSAEASGAYVNLERLGHSEDSSEVLSRSSLSEGDRLLSARSSLDSQVLGVRGGRRINEYFC
- binding [3]: binds
